# Measured values reported in PubChem BioAssay AID540276 (National Center for Advancing Translational Sciences (NCATS), 2011).
# Values joined by “and” are separate entries in the source; they are usually repeats but may differ in a detail not shown here. Equal entries are not always repeated. Among all 300,000 compounds or so, about 5,400 (1.8%) were called active. This list was built around the results that the source calls inconclusive (neither active nor inactive); the mix of calls is not that of the screen. Calls come from the whole dose curve; tested in HEK293 cells. A potency beside an inconclusive call is a rough fit, not a confirmed value.
# Assay: qHTS for inhibitors of binding or entry into cells for Marburg Virus
# Details: Marburg virus pseudotyped entry inhibition, cell reporter; activity change, negative = inhibition: at 37.8 µM (top of the series) unless noted
# % is set by controls: 0 for no effect and ±100 for the full control effect; potency is the fitted concentration of half-maximal effect.
Compound,Potency,"activity change, negative = inhibition"
Clc1cccc(NCc2nnc(SCc3ccc(Cl)cc3Cl)o2)c1,"inconclusive: 35.5 µM [inhibitor, single point]",
CSc1ccc(S(=O)(=O)N2CCC(C(=O)NCc3ccncc3)CC2)cc1,,inactive: 19% [at 46.1 µM]
CSc1nc(N2CCN(c3ccccc3Cl)CC2)c2ccccc2n1,"inconclusive: 4.47 µM [inhibitor, full curve, poor fit]",
CCCCOc1ccccc1NC(=O)Cn1c(-c2nonc2N)nc2ccccc21,"inactive and inconclusive: 4.47 µM [inhibitor, partial curve, poor fit]",
CN(C1=NC(=O)C(CC(=O)O)S1)c1ccc(O)cc1 (stereo unspecified),"inconclusive: 5.62 µM [activator, single point]",
COc1ccccc1-c1nc(SCC(=O)N2CCC(C(N)=O)CC2)n[nH]1,"inconclusive: 5.62 µM [inhibitor, single point]",
CCOc1ccccc1NC(=O)CCN1CCN(S(=O)(=O)c2ccc(Br)cc2)CC1,"inconclusive: 0.562 µM [activator, full curve, poor fit]",
O=C1NC(NS(=O)(=O)c2ccc(Cl)cc2)(C(F)(F)F)C(=O)N1Cc1cccnc1 (stereo unspecified),"inconclusive: 6.51 µM [activator, single point]",
Cc1ccccc1C(=O)Nc1ccc(C(=O)N/N=C/c2ccc(O)c(Br)c2)cc1,,inactive: -13.3% [at 46.1 µM]
CC(=O)n1cc(Nc2ccccc2C(=O)O)c2ccccc21,,inactive: 9.55% [at 46.1 µM]
CC(=O)N(C)c1ccc(NC(=O)C(c2ccccc2)c2ccccc2)cc1,"inconclusive: 35.5 µM [inhibitor, single point]",
Cc1cc(O)ccc1Nc1nc(-c2cccs2)cs1,"inconclusive: 25.1 µM [inhibitor, single point]",
CCOc1ccc(-c2nonc2NC(=O)c2oc3cc(Br)ccc3c2C)cc1,,inactive: -6.31% [at 46.1 µM]
Cc1ccccc1OCC(=O)Nc1ccc(S(=O)(=O)N2CCOCC2)cc1,"inconclusive: 10 µM [inhibitor, partial curve, poor fit]",
COc1ccc(-n2nc(C(=O)c3cccs3)cc(-c3nc4ccccc4[nH]3)c2=N)cc1,,inactive: 0.904%
O=C(/C=C/c1ccc(Cl)cc1Cl)N1CCN(c2ccccc2[N+](=O)[O-])CC1,,inactive: 0.944%
CC1(OC(=O)C2CCCC2)C(=O)C=C2C=C(c3ccsc3)N(CC3CC3)C=C2C1=O (stereo unspecified),"inconclusive: 0.299 µM [inhibitor, partial curve, poor fit]",
CC(OC(=O)c1cccnc1)C(=O)Nc1ccc2c(c1)OCO2 (stereo unspecified),,inactive: -14.3%
CCc1ccccc1Nc1nc2ccccc2n1C,"inconclusive: 1.12 µM [activator, full curve, poor fit]",
Cc1cc(C(=O)CSc2nnc(-c3cccc(F)c3)n2N)c(C)n1Cc1ccc2c(c1)OCO2,"inconclusive: 18.3 µM [inhibitor, single point]",
COC(=O)c1cn(CCOc2ccccc2F)c2ccccc12,"inconclusive: 29.1 µM [inhibitor, single point]",
CCOC(=O)N1C2=NC(C(=O)OC)=C(C(=O)OC)[C@@H]3N(C)c4ccccc4[C@]23C[C@H]1C(=O)OC,,inactive: 2.47% [at 14.2 µM]

Compound,Potency,"activity change, negative = inhibition"
CCOc1ccc(NC(=O)CN(C)C(=O)c2ccc(N3CCCCCC3)c([N+](=O)[O-])c2)cc1OCC,,inactive: 24.7%
COc1ccc(C2CCCN2C(=S)Nc2ccc(C)cc2C)cc1OC (stereo unspecified),"inconclusive: 8.91 µM [inhibitor, partial curve, poor fit]",
Cc1c(NC(=O)c2c(F)c(F)c(F)c(F)c2F)c(=O)n(-c2ccccc2)n1C,,inactive: 18.5% [at 46.1 µM]
COCCN1C(=O)N[C@@H](CCc2ccccc2)C(C(=O)OC)=C1C,"inconclusive: 2.37 µM [activator, partial curve, poor fit]",
CC1=C(C(=O)OCC2CCCO2)C(c2ccc(Cl)c(Cl)c2)NC(=O)N1 (stereo unspecified),"inconclusive: 17.8 µM [inhibitor, partial curve, poor fit]",
C=CCNC(=O)CC(=O)N/N=C/c1ccc(C(=O)OC)cc1,,inactive: 0% [at 46.1 µM]
CCOc1ccc(NS(=O)(=O)c2cc(NC(=O)C3CC3)ccc2C)cc1Br,"inconclusive: 5.62 µM [inhibitor, full curve]",
Cc1nc2ccc(NC(=O)c3ccc(Br)o3)cc2s1,"inconclusive: 1.12 µM [inhibitor, partial curve, poor fit]",
Cc1ccc2c(CN(C)Cc3ccc(OC(F)F)cc3)cc(=O)oc2c1C,"inconclusive: 8.91 µM [inhibitor, partial curve, poor fit]",
C=CC[C@@](C(C)=O)(C(=O)OC)[C@@H](NC(=O)OC(C)(C)C)c1ccccc1,"inconclusive: 2.66 µM [activator, single point]",
CC(NC(=O)c1cc2sccc2n1Cc1ccc(F)cc1)c1ccccc1 (stereo unspecified),,inactive: -17.7% [at 46.1 µM]
Nc1cccnc1Sc1ccc([N+](=O)[O-])cn1,"inconclusive: 3.16 µM [activator, partial curve, poor fit]",
CC(C)(C)c1ccc(-c2nnc(SCC(=O)NCC3CCCO3)n2N)cc1 (stereo unspecified),"inconclusive: 17.8 µM [activator, partial curve, poor fit]",
O=C(Cn1c(C(=O)N2CCN(C3CCCCC3)CC2)cc2sccc21)c1ccccc1,"inconclusive: 18.3 µM [inhibitor, single point]",
CCCCc1nnc2c(N(C)S(=O)(=O)c3ccc(C)cc3)nc3ccccc3n12,,inactive: 3.84% [at 46.1 µM]
CC(Sc1nncs1)C(=O)Nc1ccc2c(c1)OCCO2 (stereo unspecified),"inconclusive: 31.6 µM [activator, single point]",
COc1ccc(NC(=O)C(=S)NC2CCCCC2)cc1,"inconclusive: 6.31 µM [activator, single point]",
CCOC(=O)c1c2c(n(-c3ccc(OC)cc3)c1C)C(=O)C(=O)c1ccccc1-2,"inconclusive: 1.58 µM [inhibitor, full curve, poor fit]",
Cc1ccnc(NC(=O)c2cccc(S(=O)(=O)N3CCOCC3)c2)c1,,inactive: -0.393%
C/C=C(/C)C(=O)Nc1cccc(C2=NOC3(C2)C[C@H](C(N)=O)N(C(=O)Cc2ccc([N+](=O)[O-])cc2)C3)c1 (stereo partly specified),,inactive: 2.03%
CCOC(=O)c1cccc(NC(=O)CCc2nc(-c3ccc(C)cc3)no2)c1,"inconclusive: 7.94 µM [inhibitor, partial curve]",
NC(C(=O)N[C@@H]1C(=O)N2C(C(=O)O)=C(Cl)CS[C@H]12)c1ccccc1 (stereo partly specified),"inactive and inconclusive: 15.8 µM [inhibitor, single point]",

# 3 structures already listed, arranged by SMILES length, ascending:
Compound,Potency,"activity change, negative = inhibition"
COCCN1C(=O)N[C@@H](CCc2ccccc2)C(C(=O)OC)=C1C,"inconclusive: 2.37 µM [activator, partial curve, poor fit]",
CC1=C(C(=O)OCC2CCCO2)C(c2ccc(Cl)c(Cl)c2)NC(=O)N1 (stereo unspecified),"inconclusive: 17.8 µM [inhibitor, partial curve, poor fit]",
O=C(Cn1c(C(=O)N2CCN(C3CCCCC3)CC2)cc2sccc21)c1ccccc1,"inconclusive: 18.3 µM [inhibitor, single point]",

# The results go on.

Compound,Potency,"activity change, negative = inhibition"
Fc1cccc2sc(Nc3nc4ccccc4s3)nc12,"inconclusive: 1 µM [activator, full curve]",
O=C1CCCc2cc3c(ccc4ccccc43)cc21,"inconclusive: 1.78 µM [activator, partial curve, poor fit]",
COc1ccc(CCNC(=O)CNC(=O)Cn2ccc3ccccc3c2=O)cc1OC,,inactive: 11.9% [at 46.1 µM]
CCN(C(=O)/C=C/c1ccc(OC)cc1)C1CCCCC1,,inactive: 10.8%
CC(=O)NC1C(OCc2ccccc2)OC2COC(c3ccccc3)OC2C1OCC(=O)O (stereo unspecified),"inconclusive: 15.8 µM [activator, single point]",
c1ccc(C2CC(c3ccccc3)n3ncnc3N2)cc1 (stereo unspecified),,inactive: 9.49%
O=C(Nc1nc(-c2ccc(Cl)s2)cs1)c1ccco1,"inconclusive: 11.2 µM [inhibitor, partial curve, poor fit]",
Cn1c(-c2ccccc2)cnc1SCC(=O)N1CCCCC1,"inconclusive: 3.98 µM [inhibitor, full curve, poor fit]",
COCCOC(=O)c1[nH]c2c(c1C)C(=O)CC(c1cc(OC)c(OC)c(OC)c1)C2 (stereo unspecified),active: 10 µM,
CC1(c2ccccc2)CC(C)(C)N(C(=O)c2ccccc2Cl)c2ccccc21 (stereo unspecified),,inactive: 20.2% [at 46.1 µM]
O=C1CCC(=O)N1c1ccc(NCCc2ccccc2F)c([N+](=O)[O-])c1,"inconclusive: 3.16 µM [inhibitor, single point]",
COc1cccc([C@@H]2Oc3ccc(Br)cc3[C@H](O)[C@H]2O)c1,"inconclusive: 5.31 µM [inhibitor, partial curve, poor fit]",
CCN(C(=O)c1cc2c(Cl)nc3ccc(C)cc3c2s1)c1cc(OC)ccc1OC,,inactive: 4% [at 46.1 µM]
N#Cc1c(NC(=O)C2CC(c3ccccc3O)=NO2)sc2c1CCC2 (stereo unspecified),"inconclusive: 5.62 µM [activator, single point]",
COC(=O)c1ccc(COc2ccccc2/C=N/NC(=O)c2cccnc2)cc1,"inconclusive: 22.4 µM [inhibitor, single point]",
CC1CCc2cc(F)ccc2N1C(=O)CSc1nnc2c(n1)[nH]c1ccc(F)cc12 (stereo unspecified),"inconclusive: 23.1 µM [inhibitor, single point]",
COc1ccccc1NC(=S)NNC(=O)c1nn(C)c(C)c1Cl,,inactive: 2.28%
Cn1c(=O)[nH]c(=O)c2c1nc(OC(=O)c1ccccc1)n2CC(O)COc1ccc(F)cc1 (stereo unspecified),"inconclusive: 3.26 µM [activator, full curve, poor fit]",
Cc1cccc2cc(CN(CCN(C)C)C(=S)NCc3ccco3)c(=O)[nH]c12,"inconclusive: 35.5 µM [inhibitor, single point]",
COc1ccc(NC(=O)c2ccc(NC(=O)c3cccs3)cc2)cc1,"inconclusive: 7.08 µM [inhibitor, full curve, poor fit]",
CC1Cc2ccccc2N1CC(=O)NCc1ccc2c(c1)OCO2 (stereo unspecified),"inconclusive: 6.31 µM [activator, single point]",
O=C(Oc1c(-c2ccccc2Cl)oc2ccccc2c1=O)c1ccc(Cl)cc1,"inconclusive: 17.8 µM [inhibitor, single point]",
